Values from PubChem BioAssay AID652272 (Drosophila RNAi Screening Center, 2013)
Screen: 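Finding fly genes that regulate Hedgehog signal transduction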 (primary screen). Cell system: Drosophila clone 8 (Cl8) cells. Reagent: long dsRNA against Drosophila genes. Measured: 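Plate reader light from a firefly reporter under a ptc promoter fragment that responds to Hedgehog, with Renilla light as transfection reference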. Reading the numbers: firefly Hh reporter signal: higher = more ptc reporter light; Renilla reference signal: higher = more Renilla control light. Rule for the call: 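Called a hit if the two-replicate mean z-score lies below -2 or above +3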. Calls: active = hit: reporter lowered or raised; inactive = not a hit.
In all, the deposit lists about 21,000 reagents; this is a random part of those with a known target gene and a result. In the full data, 503 (2.4%) are marked active. 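Raw plate light values, not normalised; calls rest on replicate z-scores that were not deposited; hits include reporter decreases as well as increases.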 Unmarked entries are inactive. A plus sign joins genes that one reagent is predicted to hit. No sequences are given here. Not stated in the record: the amount of reagent, the time to read-out.

target	PubChem SID	firefly Hh reporter signal, replicate 1	firefly Hh reporter signal, replicate 2	firefly Hh reporter signal, replicate 3	Renilla reference signal, replicate 1	Renilla reference signal, replicate 2
CG4681	SID104184273	65573	66788		1285	4977
CG34265	SID104187822	97376	2.85e5		2346	11888
ND-B18 (NADH dehydrogenase (ubiquinone) B18 subunit)	SID104199739	75675	2.05e5		2272	8208
CG7568	SID104196051	1.20e5	95392		4273	2531
Ir25a (Ionotropic receptor 25a)	SID104180254	90884	76951		2715	6066
CG2003	SID104195203	77659	2.80e5		2800	10018
Ubr3 (Ubr3 ubiquitin ligase)	SID104197779	86944	57939		2096	1717
Ubr3 (Ubr3 ubiquitin ligase)	SID104197789	78688	1.60e5		3096	6500
CG42516 + Pbp49	SID104185865	71174	38592		3140	1670
CG14752	SID104186280	1.04e5	58336		2811	5312
Uba4 (Ubiquitin-like activating enzyme 4)	SID104181986	92275	42896		2233	3972
CG34214	SID104184282	1.19e5	62860		3970	2112
Got2 (Glutamate oxaloacetate transaminase 2)	SID104180435	95780	83526		4557	3624
CG3735	SID104184203	58568	50486		2579	2329
thetaTry (thetaTrypsin)	SID104187497	84773	42625		2216	3027
CG12589	SID104192007	62406	75728		709	1286
CG18266	SID104182451	1.53e5	56215		5401	2525
CG14327	SID104194598	1.25e5	1.14e5		5172	1977
bin3 (bicoid-interacting protein 3)	SID104184711	1.17e5	50022		2722	3812
janB (janus B)	SID104196765	1.04e5	1.23e5		3689	3958
FoxP (Forkhead box P)	SID104194951	77365	1.35e5		2135	3296
Eglp4 (Entomoglyceroporin 4)	SID104184230	78315	66445		2091	6682
RhoU	SID104197427	8.47e5	3.58e5		50483	7419
RhoU	SID104197595	55208	1.73e5		1296	6624
RhoU	SID104197596	1.19e5	7.59e5	3.08e5	3045	7492
CG15093	SID104186314	1.59e5	1.11e5		7037	4528
CG17896	SID104198294	1.12e5	1.02e5		2663	4115
CG17570	SID104181562	1.31e5	2.98e5		3834	13094
CG17570	SID104183546	92704	41884		2516	3891
EMC3 (ER membrane protein complex subunit 3)	SID104182781	1.28e5	45505		3254	4935
CG15023	SID104188269	69153	77069		6354	5411
CG42399	SID104180114	1.30e5	99915		2922	2757
CG42399	SID104180453	1.29e5	96919		2861	2701
yellow-e3	SID104194962	72384	86968		2160	1760
CG8568	SID104199905	78469	81404		1771	2080
CG10300	SID104194017	4.99e5	1.30e5		28108	4023
CG4459	SID104195374	8.45e5	1.68e5		44499	4450
CG13048	SID104189721	1.00e5			4075	2915
CG9483	SID104183018	54364	90466		2741	3185
CG5050	SID104182599	94746	76978		2519	6312
Nep2 (Neprilysin 2)	SID104191918	1.82e5	1.16e5		5969	2827
RpL36A (Ribosomal protein L36A)	SID104182847	46281 (active)	22838		2146	3165
MsR1 (Myosuppressin receptor 1)	SID104188407	1.13e5	39660		2711	3499
CG14000	SID104182124	94187	31613		2554	3508
CG3065	SID104184125	99382	59857		3600	2347
Dgat2 (Diacylglycerol O-acyltransferase 2)	SID104186595	1.16e5	98688		4770	3713
CG13506	SID104183942	1.05e5	80992		2211	6480
Hexim (Hexamethylene bisacetamide inducible)	SID104195282	64839	77350		2949	2680
CG13315	SID104189778	52020	55158		2819	1449
mRpS29 (mitochondrial ribosomal protein S29)	SID104184190	48837	43232		2071	1728
CG32284	SID104187817	1.18e5	2.79e5		3920	11232
CG6168	SID104190388	18778	44763	55701	4551	4069
CG31178	SID104194382	7.66e5	1.97e5		40662	4210
borr (borealin-related)	SID104182541	45169	29721		2566	1696
NaCP60E (Na channel protein 60E)	SID104184099	1.15e5	1.24e5		5005	4717
in (inturned)	SID104191680	92467	92981		3399	2524
tRNA:Leu-CAA-2-3 (transfer RNA:Leucine-CAA 2-3)	SID104193425	43488	2.16e5		10720	5121
lilli (lilliputian)	SID104180500	72624	6.85e5	76869	3085	34520
Opa1 (Optic atrophy 1)	SID104186983	1.17e5	90051		5347	4144
CG2712	SID104198381	96131	1.08e5		1914	3296
CG5708	SID104182673	1.27e5	57636		3506	5173
CG18477 + CG31780	SID104181747	86412	60432		2615	5664
CG13857	SID104194499	9.49e5	2.04e5		46969	4835
svp (seven up)	SID104192691	43911	2.86e5		10491	5740
svp (seven up)	SID104195103	27232 (active)	25639		1370	1305
svp (seven up)	SID104196867	1.34e5	6.57e5	1.88e5	4264	5179
Oatp58Da (Organic anion transporting polypeptide 58Da)	SID104184157	1.49e5	65882		3593	3290
acj6 (abnormal chemosensory jump 6)	SID104200096	1.25e5	84582		3111	2512
Trissin	SID104194786	1.27e5	1.27e5		3927	3634
Past1 (Putative Achaete Scute Target 1)	SID104196576	73824	1.14e5		2534	2865
CG12321	SID104194291	1.54e5	1.33e5		6407	5139
Sgs7 (Salivary gland secretion 7)	SID104191073	68962	34435	46876	2982	2929
lbe (ladybird early)	SID104196777	5.07e5	1.73e5		26552	3223
